Test results reported in publication doi:10.1101/2022.06.13.495990.
Results are given in words; binding and its absence hold for the method and conditions named. Binding seen in cells or lysates may run through a third protein. These calls come from enrichment with a bait or labelling near it, and not all partners need be listed. A no says only that the protein was not detected with the bait. Sequences can lack the tags named with a protein.

The chains behind the UniProt entries cited, without tags or fusion partners.
UniProt Q0V8S0: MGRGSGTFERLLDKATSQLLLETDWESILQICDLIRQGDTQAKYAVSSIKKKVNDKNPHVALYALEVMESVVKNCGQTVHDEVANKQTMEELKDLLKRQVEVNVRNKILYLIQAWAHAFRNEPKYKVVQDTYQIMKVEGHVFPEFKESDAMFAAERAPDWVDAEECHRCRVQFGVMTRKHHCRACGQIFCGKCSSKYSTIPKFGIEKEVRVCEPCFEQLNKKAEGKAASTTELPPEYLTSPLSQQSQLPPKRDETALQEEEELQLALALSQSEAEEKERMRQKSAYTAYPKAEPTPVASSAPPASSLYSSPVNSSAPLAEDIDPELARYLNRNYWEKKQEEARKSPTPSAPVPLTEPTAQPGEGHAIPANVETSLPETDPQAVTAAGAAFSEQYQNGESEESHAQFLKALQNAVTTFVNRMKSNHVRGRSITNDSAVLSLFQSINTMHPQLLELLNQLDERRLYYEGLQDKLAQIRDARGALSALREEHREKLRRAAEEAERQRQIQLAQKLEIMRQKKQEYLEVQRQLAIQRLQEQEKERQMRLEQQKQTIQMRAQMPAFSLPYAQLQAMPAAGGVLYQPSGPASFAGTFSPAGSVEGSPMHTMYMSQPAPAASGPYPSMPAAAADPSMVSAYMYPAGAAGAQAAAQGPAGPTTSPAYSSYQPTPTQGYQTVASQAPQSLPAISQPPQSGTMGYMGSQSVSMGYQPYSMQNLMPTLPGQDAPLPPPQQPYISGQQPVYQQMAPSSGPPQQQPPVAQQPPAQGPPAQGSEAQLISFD
UniProt Q99LI8: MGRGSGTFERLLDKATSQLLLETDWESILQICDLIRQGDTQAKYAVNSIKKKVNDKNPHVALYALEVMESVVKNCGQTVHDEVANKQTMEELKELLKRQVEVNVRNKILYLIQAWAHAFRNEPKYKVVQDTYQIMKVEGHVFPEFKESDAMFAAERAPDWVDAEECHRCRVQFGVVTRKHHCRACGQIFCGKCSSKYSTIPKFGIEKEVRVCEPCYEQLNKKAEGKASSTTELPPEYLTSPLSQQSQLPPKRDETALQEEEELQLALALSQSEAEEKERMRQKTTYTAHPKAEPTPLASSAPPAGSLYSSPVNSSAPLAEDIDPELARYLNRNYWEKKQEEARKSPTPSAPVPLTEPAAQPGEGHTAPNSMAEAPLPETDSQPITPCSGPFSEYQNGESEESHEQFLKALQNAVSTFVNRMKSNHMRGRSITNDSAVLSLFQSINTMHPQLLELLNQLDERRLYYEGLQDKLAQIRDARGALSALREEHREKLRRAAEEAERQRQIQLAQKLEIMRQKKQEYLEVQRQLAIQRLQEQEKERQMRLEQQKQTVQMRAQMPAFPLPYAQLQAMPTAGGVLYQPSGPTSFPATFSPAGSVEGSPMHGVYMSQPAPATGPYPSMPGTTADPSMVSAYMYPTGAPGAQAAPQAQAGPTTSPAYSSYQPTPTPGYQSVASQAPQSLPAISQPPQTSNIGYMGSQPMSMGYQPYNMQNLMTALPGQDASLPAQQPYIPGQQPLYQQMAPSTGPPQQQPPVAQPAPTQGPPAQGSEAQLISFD
UniProt P70297: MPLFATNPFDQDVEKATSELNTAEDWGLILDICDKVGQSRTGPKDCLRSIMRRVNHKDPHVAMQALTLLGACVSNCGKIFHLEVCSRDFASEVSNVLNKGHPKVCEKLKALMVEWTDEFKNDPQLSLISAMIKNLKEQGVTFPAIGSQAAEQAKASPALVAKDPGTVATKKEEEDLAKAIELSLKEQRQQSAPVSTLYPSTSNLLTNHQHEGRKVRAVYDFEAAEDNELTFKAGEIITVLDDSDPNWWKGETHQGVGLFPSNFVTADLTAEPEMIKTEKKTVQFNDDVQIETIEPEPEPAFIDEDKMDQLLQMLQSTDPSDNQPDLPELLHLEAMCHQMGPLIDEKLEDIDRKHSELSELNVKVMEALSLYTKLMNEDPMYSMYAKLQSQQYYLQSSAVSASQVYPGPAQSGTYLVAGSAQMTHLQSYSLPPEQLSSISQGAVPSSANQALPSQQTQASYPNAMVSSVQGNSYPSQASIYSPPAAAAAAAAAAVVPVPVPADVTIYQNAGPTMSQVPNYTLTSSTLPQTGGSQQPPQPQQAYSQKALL

How the values were obtained:
Assay in all cases: affinity purification with mass spectrometry
[1] = molecular target: T1, GST-tagged mouse CFAP418 full-length (mouse) (UniProt Q3UJP5)
T1 sequence: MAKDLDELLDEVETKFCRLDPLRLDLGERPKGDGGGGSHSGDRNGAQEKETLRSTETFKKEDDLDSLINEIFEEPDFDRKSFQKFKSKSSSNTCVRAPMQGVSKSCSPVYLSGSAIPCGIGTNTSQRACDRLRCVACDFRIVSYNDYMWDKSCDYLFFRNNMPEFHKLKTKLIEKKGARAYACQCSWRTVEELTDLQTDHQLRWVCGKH

[2] = molecular target: T2, GST-tagged mouse CFAP418 C-terminal bait (169-209 aa) (mouse) (UniProt Q3UJP5)
T2 sequence: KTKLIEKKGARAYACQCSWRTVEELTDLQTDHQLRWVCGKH

[3] = molecular target: T3, Cilia- and Flagella-Associated Protein 418 (CFAP418), endogenous in mouse retina (mouse (endogenous in mouse retina)) (UniProt Q3UJP5)
T3 sequence: T1 sequence

| binding [1] | binding [2] | binding [3] | Substance |
| --- | --- | --- | --- |
| no binding | no binding |  | HGS, endogenous in bovine retina (from UniProt Q0V8S0 1-777) |
| no binding | no binding |  | STAM, endogenous in bovine retina |
|  |  | no binding | HGS (hepatocyte growth factor-regulated tyrosine kinase substrate), endogenous in mouse retina (from UniProt Q99LI8 1-775) |
|  |  | no binding | STAM (signal transducing adaptor molecule), endogenous in mouse retina (from UniProt P70297 1-548) |
